Data on two molecules can be found in PMC6418353.

The chains behind the UniProt entries cited, without tags or fusion partners.
UniProt Q96CV9: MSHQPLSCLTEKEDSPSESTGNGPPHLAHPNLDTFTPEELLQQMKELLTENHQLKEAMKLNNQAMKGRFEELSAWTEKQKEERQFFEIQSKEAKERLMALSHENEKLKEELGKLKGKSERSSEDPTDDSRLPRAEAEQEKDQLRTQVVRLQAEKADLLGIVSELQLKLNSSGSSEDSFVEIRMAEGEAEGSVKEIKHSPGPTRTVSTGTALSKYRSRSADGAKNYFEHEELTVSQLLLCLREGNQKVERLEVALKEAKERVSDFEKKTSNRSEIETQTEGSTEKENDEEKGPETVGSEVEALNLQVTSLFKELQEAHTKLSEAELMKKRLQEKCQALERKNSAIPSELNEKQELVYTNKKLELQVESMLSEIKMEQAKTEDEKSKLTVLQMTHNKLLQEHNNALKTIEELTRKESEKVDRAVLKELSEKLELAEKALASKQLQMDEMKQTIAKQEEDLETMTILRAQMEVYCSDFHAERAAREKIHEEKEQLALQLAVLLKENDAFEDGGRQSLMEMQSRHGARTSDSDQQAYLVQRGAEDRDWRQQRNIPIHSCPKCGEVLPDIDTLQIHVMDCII

These are yes or no findings as the source states them, for the method shown. In cells and extracts the contact can be indirect. Some entries that bind do so weakly or less than the wild type. Where a sequence is shown, tags or fusion partners need not be part of it.

In the experiment the target is GST-OPTN (UniProt Q96CV9). Put plainly: pull-down; GST-OPTN from E. coli as bait, incubated with whole cell lysates of HEK293T cells transfected with GFP-TBK1 (wild type or p.Ile334Thr); GST Protein Interaction Pull-Down Kit (Thermo Scientific #21516); bound proteins detected by western blotting; only the target purified. Background: In western blotting, separated proteins are transferred to a membrane and probed.

B1: GFP-tagged wild-type human TBK1 (enzyme, UniProt Q9UHD2 1-729)
chain: MQSTSNHLWLLSDILGQGATANVFRGRHKKTGDLFAIKVFNNISFLRPVDVQMREFEVLKKLNHKNIVKLFAIEEETTTRHKVLIMEFCPCGSLYTVLEEPSNAYGLPESEFLIVLRDVVGGMNHLRENGIVHRDIKPGNIMRVIGEDGQSVYKLTDFGAARELEDDEQFVSLYGTEEYLHPDMYERAVLRKDHQKKYGATVDLWSIGVTFYHAATGSLPFRPFEGPRRNKEVMYKIITGKPSGAISGVQKAENGPIDWSGDMPVSCSLSRGLQVLLTPVLANILEADQEKCWGFDQFFAETSDILHRMVIHVFSLQQMTAHKIYIHSYNTATIFHELVYKQTKIISSNQELIYEGRRLVLEPGRLAQHFPKTTEENPIFVVSREPLNTIGLIYEKISLPKVHPRYDLDGDASMAKAITGVVCYACRIASTLLLYQELMRKGIRWLIELIKDDYNETVHKKTEVVITLDFCIRNIEKTVKVYEKLMKINLEAAELGEISDIHTKLLRLSSSQGTIETSLQDIDSRLSPGGSLADAWAHQEGTHPKDRNVEKLQVLLNCMTEIYYQFKKDKAERRLAYNEEQIHKFDKQKLYYHATKAMTHFTDECVKKYEAFLNKSEEWIRKMLHLRKQLLSLTNQCFDIEEEVSKYQEYTNELQETLPQKMFTASSGIKHTMTPIYPSSNTLVEMTLGMKKLKEEMEGVVKELAENNHILERFGSLTMDGGLRNVDCL
Turning to B1, the binding result is listed as “binds”.

B2: GFP-tagged p.Ile334Thr TBK1 (enzyme, UniProt Q9UHD2 1-729)
chain: MQSTSNHLWLLSDILGQGATANVFRGRHKKTGDLFAIKVFNNISFLRPVDVQMREFEVLKKLNHKNIVKLFAIEEETTTRHKVLIMEFCPCGSLYTVLEEPSNAYGLPESEFLIVLRDVVGGMNHLRENGIVHRDIKPGNIMRVIGEDGQSVYKLTDFGAARELEDDEQFVSLYGTEEYLHPDMYERAVLRKDHQKKYGATVDLWSIGVTFYHAATGSLPFRPFEGPRRNKEVMYKIITGKPSGAISGVQKAENGPIDWSGDMPVSCSLSRGLQVLLTPVLANILEADQEKCWGFDQFFAETSDILHRMVIHVFSLQQMTAHKIYIHSYNTATTFHELVYKQTKIISSNQELIYEGRRLVLEPGRLAQHFPKTTEENPIFVVSREPLNTIGLIYEKISLPKVHPRYDLDGDASMAKAITGVVCYACRIASTLLLYQELMRKGIRWLIELIKDDYNETVHKKTEVVITLDFCIRNIEKTVKVYEKLMKINLEAAELGEISDIHTKLLRLSSSQGTIETSLQDIDSRLSPGGSLADAWAHQEGTHPKDRNVEKLQVLLNCMTEIYYQFKKDKAERRLAYNEEQIHKFDKQKLYYHATKAMTHFTDECVKKYEAFLNKSEEWIRKMLHLRKQLLSLTNQCFDIEEEVSKYQEYTNELQETLPQKMFTASSGIKHTMTPIYPSSNTLVEMTLGMKKLKEEMEGVVKELAENNHILERFGSLTMDGGLRNVDCL
Turning to B2, the binding result is on record as “binds”.
